Experimental data: PubChem BioAssay AID540276 (National Center for Advancing Translational Sciences (NCATS), 2011)
Among all 300,000 compounds or so, about 5,400 (1.8%) were called active. The shares of active, inactive and inconclusive entries below differ from those in the screen. Calls follow the shape of the full dose curve; tested in HEK293 cells. Where the call is inconclusive, the potency comes from a doubtful curve fit.

Experiment: qHTS for inhibitors of binding or entry into cells for Marburg Virus
Details: Marburg virus pseudotyped entry inhibition, cell reporter; series mostly up to 37.8 µM
Potency is read from the fitted curve at half-maximal effect.

Question: For CCc1ccc(OCCCC(=O)Nc2ccc(S(=O)(=O)Nc3cc(C)nc(C)n3)cc2)cc1, which Potency is on record?
Answer: inactive

Question: For CCSc1ccc(C(=O)NCC(=O)O)cc1, which Potency is on record?
Answer: inconclusive: 11.2 µM [activator, partial curve]

Question: For O=C(COc1ccc(Br)cc1)N1CCc2ccccc21, which Potency is on record?
Answer: inconclusive: 3.55 µM [activator, single point]

Question: Which Potency does the source give for Cc1cccc(OCCNC(=O)CCNS(=O)(=O)c2ccc3ccccc3c2)c1 here?
Answer: inconclusive: 2.82 µM [activator, single point]

Question: Which Potency does the source give for CC1CCN(S(=O)(=O)c2ccc(Oc3ccc([N+](=O)[O-])cc3)cc2)CC1 here?
Answer: inactive

Question: With COc1cc(NC(=O)c2ccccc2)c(OC)cc1NC(=O)Cc1ccc(C)cc1 as the compound, how does the Potency read?
Answer: inconclusive: 35.5 µM [inhibitor, single point]

Question: For COc1ccc(-c2ncncc2-c2ccc(OC)c(OC)c2)c(O)c1, which Potency is on record?
Answer: inconclusive: 5.62 µM [inhibitor, single point]

Question: For CC(=O)OCCNc1nc(-c2ccccc2)nc2ccccc12, which Potency is on record?
Answer: inactive

Question: For Cc1cccc(C)c1NC(=O)C1=C(O)c2ccccc2N(C)S1(=O)=O, which Potency is on record?
Answer: inconclusive: 18.3 µM [inhibitor, single point]

Question: For COCCNC(=O)C(c1ccc(F)cc1)N(Cc1cccs1)C(=O)CCC(=O)Nc1ccccn1 (stereo unspecified), which Potency is on record?
Answer: inactive

Question: For Cn1cnnc1SCC(=O)Nc1ccc2ccccc2c1, which Potency is on record?
Answer: inactive

Question: Which Potency does the source give for COc1cccc(/C=C2\SC(=S)N(CCCC(=O)Nc3ccc(C(=O)O)cc3)C2=O)c1 here?
Answer: inactive

Question: With COc1cccc(OC)c1OCCCOc1ccc(C)cc1Br as the compound, how does the Potency read?
Answer: inconclusive: 1.26 µM [activator, single point]

Question: With CCOC(=O)c1[nH]c2ccccc2c1NC(=O)C1CCCC1 as the compound, how does the Potency read?
Answer: inactive

Question: With C=CCn1c(C)c(C(C)=O)c(N2CCN(C(c3ccccc3)c3ccccc3)CC2)nc1=S as the compound, how does the Potency read?
Answer: inconclusive: 10 µM [inhibitor, partial curve, poor fit]

Question: Which Potency does the source give for CC1=CC(C)(C)N(C(=O)CSc2nncn2C)c2ccccc21 here?
Answer: inactive

Question: Which Potency does the source give for Clc1cncc(Cl)c1N/N=C/c1ccccc1 here?
Answer: inconclusive: 35.5 µM [inhibitor, single point]

Question: Which Potency does the source give for CCc1ccc(CNC(=O)c2cc(-c3ccc(Cl)s3)nc3ccccc23)cc1 here?
Answer: inactive

Question: Which Potency does the source give for COc1ccc(-n2cnnc2SCC(=O)N(C)c2ccccc2)cc1 here?
Answer: inconclusive: 35.5 µM [inhibitor, single point]

Question: For COc1ccc2c(CSc3nnc(-c4cccnc4)n3-c3ccccc3F)cc(=O)oc2c1, which Potency is on record?
Answer: inactive

Question: Which Potency does the source give for Cc1ccc(NC(=O)CCOc2ccccc2C)cc1C here?
Answer: inconclusive: 12.6 µM [inhibitor, partial curve, poor fit]

Question: Which Potency does the source give for Cc1ccc(-c2nnc3ccc(SCC(=O)NCc4ccco4)nn23)cc1 here?
Answer: inactive

Question: For COc1ccc2c(c1)sc1ncc(C(=O)NCc3cccc(Cl)c3)c(=O)n12, which Potency is on record?
Answer: inactive

Question: With O=C1CC(N2CCC(c3nc4ccccc4[nH]3)CC2)C(=O)N1c1ccccc1F (stereo unspecified) as the compound, how does the Potency read?
Answer: inconclusive: 12.6 µM [activator, partial curve, poor fit]

Question: With COc1ccc(CCNC(=O)c2ccc3c(c2)N(Cc2cccc(Cl)c2)C(=O)CS3)cc1OC as the compound, how does the Potency read?
Answer: inconclusive: 8.91 µM [inhibitor, single point]

Question: With Cn1c(=O)n(CC(=O)N2CCN(c3nnc(-c4ccccc4)c4ccccc34)CC2)c2ccccc21 as the compound, how does the Potency read?
Answer: inconclusive: 25.9 µM [inhibitor, single point]

Question: With CC1(O)C(=O)C=C2C=C3CCCN3C=C2C1=O (stereo unspecified) as the compound, how does the Potency read?
Answer: inconclusive: 2.99 µM [inhibitor, partial curve, poor fit]

Question: For O=C(NC(=S)Nc1nc(-c2cccc([N+](=O)[O-])c2)cs1)c1cc(Cl)ccc1Cl, which Potency is on record?
Answer: inconclusive: 6.31 µM [activator, single point]

Question: For Cc1cccc(Nc2ccccc2C(=O)NCc2ccco2)c1C, which Potency is on record?
Answer: inconclusive: 35.5 µM [inhibitor, single point]

Question: For Cc1nc(Nc2ccc(Cl)cc2)c2oc3ccccc3c2n1, which Potency is on record?
Answer: inactive

Question: Which Potency does the source give for COc1ccc(Cl)cc1NC(=O)CN(c1cccc(C)c1C)S(=O)(=O)c1ccccc1 here?
Answer: inactive

Question: Which Potency does the source give for CCC1CCCCN1S(=O)(=O)c1ccc(NC(=O)C2CC(=O)N(C(C)(C)C)C2)cc1 (stereo unspecified) here?
Answer: inactive

Question: For O=C1c2[nH]nc(-c3ccc(Br)cc3)c2C(c2cccc(O)c2)N1c1ccc(Cl)cc1 (stereo unspecified), which Potency is on record?
Answer: inconclusive: 25.1 µM [inhibitor, single point]

Question: Which Potency does the source give for O=C(O)c1ccc(Nc2nc(-c3cc4ccccc4oc3=O)cs2)cc1O here?
Answer: inconclusive: 3.55 µM [activator, single point]

Question: With O=C(CCCOc1ccc(Cl)cc1Cl)N1CCCc2ccccc21 as the compound, how does the Potency read?
Answer: inactive

Question: For CCOC(=O)Cc1csc(NC(=O)/C=C\c2ccccc2)n1, which Potency is on record?
Answer: inactive

Question: For COc1ccccc1C(=O)NC(=S)/C=C1/N(C)c2ccccc2C1(C)C, which Potency is on record?
Answer: active: 14.1 µM

Question: For CC1CCN(C(=O)c2ccc3c(c2)OCCO3)CC1, which Potency is on record?
Answer: inconclusive: 1.26 µM [activator, single point]

Question: With C=CCN1C(=O)/C(=c2\sc3nc(=O)c(Cc4ccccc4Cl)nn3c2=O)c2ccccc21 as the compound, how does the Potency read?
Answer: inconclusive: 3.16 µM [inhibitor, single point]

Question: Which Potency does the source give for CN(C)S(=O)(=O)c1cccc(NC(=O)COC(=O)c2ccc3c(c2)OCO3)c1 here?
Answer: inconclusive: 3.55 µM [inhibitor, single point]

Question: For O[C@H]1CN(CC2CCCCC2)[C@@H](c2ccccc2)C[C@H]1n1cc(C2CC2)nn1, which Potency is on record?
Answer: inconclusive: 35.3 µM [inhibitor, single point]

Question: For COc1ccc(-n2c3c(cc(-c4nc(-c5ccc(Cl)cc5)cs4)c2=O)C(=O)CC(C)(C)C3)cc1, which Potency is on record?
Answer: inconclusive: 8.91 µM [activator, partial curve, poor fit]

Question: For OC(c1nc2ccccc2[nH]1)C(O)C(O)C(O)c1nc2ccccc2[nH]1 (stereo unspecified), which Potency is on record?
Answer: inconclusive: 35.5 µM [inhibitor, single point]

Question: For COc1ccc(-n2nc3cc(C)c(NC(=O)C(C)C)cc3n2)cc1, which Potency is on record?
Answer: inactive

Question: Which Potency does the source give for CC(C)OC(=O)NCCOC(=O)Nc1cccc(Cl)c1 here?
Answer: inactive

Question: Which Potency does the source give for Cc1cc(N2C(=O)c3ccc(C(=O)Nc4ccc(O)cc4C(=O)O)cc3C2=O)no1 here?
Answer: inactive

Question: Which Potency does the source give for CN(Cc1ccccc1)C(=O)Cn1c(=O)oc2cc(S(=O)(=O)NCc3ccccc3)ccc21 here?
Answer: inactive

Question: For O=C(Nc1ccc(Cl)c([N+](=O)[O-])c1)c1ccc2c(c1)OCCO2, which Potency is on record?
Answer: inconclusive: 35.5 µM [inhibitor, single point]

Question: For O=C(Cn1c(C(F)(F)F)nc2ccccc21)c1ccc(Br)cc1, which Potency is on record?
Answer: inconclusive: 35.5 µM [inhibitor, single point]

Question: Which Potency does the source give for CNC(=O)COc1ccc(NC(=O)CCn2nc(-c3ccc(C)cc3)c3ccccc3c2=O)cc1 here?
Answer: inconclusive: 25.1 µM [inhibitor, single point]

Question: With O=C(COc1ccc(Cl)cc1)Nc1cc(S(=O)(=O)N2CCCCC2)ccc1N1CCCCC1 as the compound, how does the Potency read?
Answer: inactive

Question: For Cc1cccc2cc(CNC3CCCC3)c(Cl)nc12, which Potency is on record?
Answer: inconclusive: 35.5 µM [inhibitor, single point]

Question: With COc1ccc2oc(C(=O)OCC(=O)c3ccc4c(c3)OCCO4)c(C)c2c1 as the compound, how does the Potency read?
Answer: inconclusive: 18.3 µM [inhibitor, partial curve, poor fit]

Question: With O=C(Nc1nc2nc(-c3ccccc3)cc(=O)n2[nH]1)c1ccc(Cl)cc1 as the compound, how does the Potency read?
Answer: inactive

Question: Which Potency does the source give for CC(=O)n1c(C=Nc2ccc(Cl)cc2)c(O)c2ccccc21 here?
Answer: inconclusive: 2.51 µM [inhibitor, full curve]

Question: Which Potency does the source give for O=C(CN1CCN(C(=O)C2CCCO2)CC1)Nc1ccc(Cl)cc1 (stereo unspecified) here?
Answer: inconclusive: 4.47 µM [activator, full curve, poor fit]

Question: For COc1ccc(-n2nc(C(=O)N3CCN(c4cccc(C)c4C)CC3)c3c4ccccc4n(C)c3c2=O)cc1, which Potency is on record?
Answer: inactive

Question: With CC1CC(C)CN(CC(O)COc2ccc3c(c2)CCC3)C1 (stereo unspecified) as the compound, how does the Potency read?
Answer: inconclusive: 6.51 µM [inhibitor, full curve, poor fit]

Question: Which Potency does the source give for O=C(NCC(c1ccco1)N1CCc2ccccc21)c1cccc([N+](=O)[O-])c1 (stereo unspecified) here?
Answer: inconclusive: 20 µM [inhibitor, partial curve, poor fit]

Question: With Cc1cccc(N=C2NC(=O)/C(=C/c3cn(C)c4ccccc34)S2)c1 as the compound, how does the Potency read?
Answer: inconclusive: 22.4 µM [inhibitor, single point]

Question: With CC(=O)Nc1ccccc1C(=O)OCc1ccc(F)cc1 as the compound, how does the Potency read?
Answer: inconclusive: 1.58 µM [inhibitor, partial curve, poor fit]

Question: Which Potency does the source give for O=C(COC(=O)c1ccc(Cl)cc1)NC1CCCCCC1 here?
Answer: inconclusive: 0.708 µM [inhibitor, partial curve, poor fit]

Question: For CC1(c2ccccc2)NC(=O)N(CC(=O)Nc2cc3c(cc2Br)OCCO3)C1=O (stereo unspecified), which Potency is on record?
Answer: inconclusive: 35.5 µM [inhibitor, single point]

Question: Which Potency does the source give for O=C(O)/C(=C\c1ccco1)NC(=O)c1ccccc1 here?
Answer: inactive

Question: For COc1ccc(CNC(=S)Nc2ccccc2)cc1, which Potency is on record?
Answer: inactive

Question: With CC(Oc1ccccc1)C(=O)Nc1ccc(S(=O)(=O)N2CCOCC2)cc1 (stereo unspecified) as the compound, how does the Potency read?
Answer: inactive

Question: Which Potency does the source give for COc1ccc2nc(NC(=O)CSc3nc(C)cc(=O)[nH]3)sc2c1 here?
Answer: inconclusive: 5.62 µM [inhibitor, single point]

Question: Which Potency does the source give for O=C(N/N=C/c1cc(Br)ccc1OC(=O)c1ccc(Br)cc1)c1ccncc1 here?
Answer: active: 1 µM

Question: For Cc1ccc(-c2nn(-c3ccccc3)cc2CO)o1, which Potency is on record?
Answer: inconclusive: 6.31 µM [activator, single point]

Question: For Cc1csc2nc(CN3CCN(CC(=O)N(C)C)CC3)cc(=O)n12, which Potency is on record?
Answer: inconclusive: 5.01 µM [activator, partial curve]

Question: Which Potency does the source give for Cn1c(N)c(C(=O)COC(=O)c2ncc(Cl)c(Cl)c2Cl)c(=O)n(C)c1=O here?
Answer: inconclusive: 10 µM [inhibitor, partial curve, poor fit]
